{"source": "patent US20040258621A1", "about": "“Method of treating snoring and other obstructive breathing disorders” (priority 2002, published 2004)", "key": {"[1]": {"details": "cited from earlier work"}, "[2]": {"tested_on": "snoring in a nocturnal breathing obstructed person with GERD", "assay": "Case study of a snoring patient with GERD", "type": "in vivo, human", "details": "75 mg once daily, over the next few weeks", "source_text": "A person, 5 feet 3 inches tall and moderately overweight reported a 15-20 year history of progressively increasing snoring. The intensity of their snoring was well documented by their spouse, who experienced disturbed sleep as a result of their spouse's snoring, occasionally requiring them to waken the patient in order for them to obtain relief. The patient gave no history of naso-pharyngeal structural abnormalities or surgery (other than third molar extraction) and had experienced no breathing disorder.\nThe patient complained to their physician of a chronic scratchiness in their throat, thought to be a result of gastroesophageal reflux disease (GERD). To treat the GERD symptoms, the patient was placed on Prevacid (Lansoprazole) 15 mg once daily."}}, "note": "For at least one compound, name, drawing or mass did not settle the structure."}
{"molecule": "COc1ccc2[nH]c([S+]([O-])Cc3ncc(C)c(OC)c3C)nc2c1", "note": "(centres unmarked) [Omeprazole form A, omeprazole]", "values": [{"measurement": "hygroscopicity", "setting": "[1]", "result": "essentially non-hygroscopic"}]}
{"molecule": "CNC(=C[N+](=O)[O-])NCCSCc1ccc(CN(C)C)o1", "note": "[Zantac (ranitidine), ranitidine]", "values": [{"measurement": "snoring intensity", "setting": "[2]", "result": "gradually reversed"}]}
